Assay results published in patent US20220023385A1.
These are yes or no findings as the source states them, for the method shown. Some binding calls cover weakened binding; strength is not graded here. Sequences can lack the tags named with a protein.

Target: T1, Met-Fc fusion protein (R&D Systems) labeled with Alexa 488, P08581
T1 chain: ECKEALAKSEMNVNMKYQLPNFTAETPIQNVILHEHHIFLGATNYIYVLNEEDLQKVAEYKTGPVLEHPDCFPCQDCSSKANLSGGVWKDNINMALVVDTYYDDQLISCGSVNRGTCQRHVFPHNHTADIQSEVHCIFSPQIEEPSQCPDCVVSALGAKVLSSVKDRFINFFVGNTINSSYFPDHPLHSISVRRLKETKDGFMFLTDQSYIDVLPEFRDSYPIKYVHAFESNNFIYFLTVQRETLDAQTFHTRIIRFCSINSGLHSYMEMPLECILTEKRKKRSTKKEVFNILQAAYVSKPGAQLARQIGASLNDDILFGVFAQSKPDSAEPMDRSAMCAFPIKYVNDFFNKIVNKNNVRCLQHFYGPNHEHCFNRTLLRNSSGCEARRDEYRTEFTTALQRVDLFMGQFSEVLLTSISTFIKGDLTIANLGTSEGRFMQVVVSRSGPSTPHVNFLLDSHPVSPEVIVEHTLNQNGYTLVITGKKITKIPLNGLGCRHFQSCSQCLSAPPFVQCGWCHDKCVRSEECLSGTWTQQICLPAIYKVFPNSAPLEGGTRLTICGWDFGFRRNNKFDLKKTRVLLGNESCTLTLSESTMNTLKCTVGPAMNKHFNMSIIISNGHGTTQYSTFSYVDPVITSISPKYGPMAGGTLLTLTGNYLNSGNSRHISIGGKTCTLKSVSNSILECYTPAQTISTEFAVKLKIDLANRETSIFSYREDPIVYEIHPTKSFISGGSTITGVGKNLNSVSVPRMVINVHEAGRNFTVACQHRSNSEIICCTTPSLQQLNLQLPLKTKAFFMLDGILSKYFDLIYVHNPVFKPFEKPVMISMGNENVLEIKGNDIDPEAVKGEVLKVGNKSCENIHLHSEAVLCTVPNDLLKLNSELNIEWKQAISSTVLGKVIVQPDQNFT
Assay: flow cytometry, yeast display, 20 or 200 nM Met-Fc labeled with Alexa 488, with and without 2 µM heparin
Conditions: remark: other sources report otherwise

binding: binds
B1: wild-type NK1 Isoform 1 displayed on yeast, P14210 28-210 (ligand)
chain: YAEGQRKRRNTIHEFKKSAKTTLIKIDPALKIKTKKVNTADQCANRCTRNKGLPFTCKAFVFDKARKQCLWFPFNSMSSGVKKEFGHEFDLYENKDYIRNCIIGKGRSYKGTVSITKSGIKCQPWSSMIPHEHSFLPSSYRGKDLQENYCRNPRGEEGGPWCFTSNPEVRYEVCDIPQCSEVE
modifications: here or on the partner: Alexa 488 label
